Values quoted from earlier work in patent publication US20030013684A1, “Agricultural composition” (priority 2001, published 2003).
At least one structure is not confirmed: it was looked up by name or label, or the drawing left a doubt.

Conditions: cited from earlier work

CN(CC[C@H](N)CC(=O)N[C@H]1C=C[C@H](n2ccc(N)nc2=O)O[C@@H]1C(=O)O)C(=N)N [blasticidin]
water solubility: 3%
